Assay results as given in publication PMC12520514.
No constants are given. Whether binding was seen depends on the method and setting. Binding seen in cells or lysates may run through a third protein.

Sequences of proteins named here, by UniProt entry; tags and fusion partners are left off.
UniProt Q8IY92: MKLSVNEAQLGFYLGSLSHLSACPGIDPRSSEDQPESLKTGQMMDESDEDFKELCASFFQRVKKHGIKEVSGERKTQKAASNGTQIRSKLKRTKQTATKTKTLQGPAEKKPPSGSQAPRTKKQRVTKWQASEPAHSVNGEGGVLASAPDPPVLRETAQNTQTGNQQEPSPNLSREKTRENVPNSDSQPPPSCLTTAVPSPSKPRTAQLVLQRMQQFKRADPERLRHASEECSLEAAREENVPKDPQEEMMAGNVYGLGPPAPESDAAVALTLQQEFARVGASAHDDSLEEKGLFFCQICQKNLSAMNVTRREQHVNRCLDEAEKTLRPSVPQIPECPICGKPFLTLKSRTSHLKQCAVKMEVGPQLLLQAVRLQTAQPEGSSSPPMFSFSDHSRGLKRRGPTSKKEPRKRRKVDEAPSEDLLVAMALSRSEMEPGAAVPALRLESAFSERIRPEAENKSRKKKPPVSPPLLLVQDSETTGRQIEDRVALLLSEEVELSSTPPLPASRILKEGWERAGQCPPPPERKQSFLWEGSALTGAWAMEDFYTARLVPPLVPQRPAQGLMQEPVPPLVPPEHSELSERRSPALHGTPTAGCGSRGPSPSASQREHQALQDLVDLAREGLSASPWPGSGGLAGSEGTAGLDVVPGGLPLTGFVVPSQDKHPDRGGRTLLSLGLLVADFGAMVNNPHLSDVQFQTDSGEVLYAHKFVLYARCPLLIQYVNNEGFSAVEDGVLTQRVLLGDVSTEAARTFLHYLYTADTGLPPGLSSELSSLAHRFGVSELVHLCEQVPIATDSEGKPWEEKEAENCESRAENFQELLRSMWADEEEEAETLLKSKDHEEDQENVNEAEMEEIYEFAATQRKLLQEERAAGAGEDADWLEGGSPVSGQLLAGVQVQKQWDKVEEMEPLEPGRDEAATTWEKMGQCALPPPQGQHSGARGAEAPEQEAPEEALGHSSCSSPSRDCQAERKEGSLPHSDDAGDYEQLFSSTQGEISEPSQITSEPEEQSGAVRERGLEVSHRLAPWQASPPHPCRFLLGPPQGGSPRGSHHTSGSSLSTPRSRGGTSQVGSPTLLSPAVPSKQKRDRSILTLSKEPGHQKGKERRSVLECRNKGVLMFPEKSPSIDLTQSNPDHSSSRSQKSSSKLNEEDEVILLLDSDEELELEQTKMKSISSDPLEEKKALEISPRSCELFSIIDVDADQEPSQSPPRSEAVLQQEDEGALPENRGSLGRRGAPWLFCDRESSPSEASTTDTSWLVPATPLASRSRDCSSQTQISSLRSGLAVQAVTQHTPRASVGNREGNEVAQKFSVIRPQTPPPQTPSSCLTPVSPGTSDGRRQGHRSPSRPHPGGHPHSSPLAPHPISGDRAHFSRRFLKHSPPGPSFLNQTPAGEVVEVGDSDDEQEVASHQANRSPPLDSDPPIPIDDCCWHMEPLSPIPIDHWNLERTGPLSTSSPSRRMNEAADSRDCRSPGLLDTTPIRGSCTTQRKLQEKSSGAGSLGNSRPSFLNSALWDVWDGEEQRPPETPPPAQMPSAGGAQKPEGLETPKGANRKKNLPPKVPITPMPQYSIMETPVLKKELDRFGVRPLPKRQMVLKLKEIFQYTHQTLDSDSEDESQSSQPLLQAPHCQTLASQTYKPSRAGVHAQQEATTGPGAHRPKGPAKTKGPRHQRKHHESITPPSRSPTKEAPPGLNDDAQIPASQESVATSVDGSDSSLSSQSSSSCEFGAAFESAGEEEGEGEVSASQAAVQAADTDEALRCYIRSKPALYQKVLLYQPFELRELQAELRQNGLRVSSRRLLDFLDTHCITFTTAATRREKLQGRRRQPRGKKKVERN

Target: T1, Importin-13 (UniProt O94829)
T1 sequence: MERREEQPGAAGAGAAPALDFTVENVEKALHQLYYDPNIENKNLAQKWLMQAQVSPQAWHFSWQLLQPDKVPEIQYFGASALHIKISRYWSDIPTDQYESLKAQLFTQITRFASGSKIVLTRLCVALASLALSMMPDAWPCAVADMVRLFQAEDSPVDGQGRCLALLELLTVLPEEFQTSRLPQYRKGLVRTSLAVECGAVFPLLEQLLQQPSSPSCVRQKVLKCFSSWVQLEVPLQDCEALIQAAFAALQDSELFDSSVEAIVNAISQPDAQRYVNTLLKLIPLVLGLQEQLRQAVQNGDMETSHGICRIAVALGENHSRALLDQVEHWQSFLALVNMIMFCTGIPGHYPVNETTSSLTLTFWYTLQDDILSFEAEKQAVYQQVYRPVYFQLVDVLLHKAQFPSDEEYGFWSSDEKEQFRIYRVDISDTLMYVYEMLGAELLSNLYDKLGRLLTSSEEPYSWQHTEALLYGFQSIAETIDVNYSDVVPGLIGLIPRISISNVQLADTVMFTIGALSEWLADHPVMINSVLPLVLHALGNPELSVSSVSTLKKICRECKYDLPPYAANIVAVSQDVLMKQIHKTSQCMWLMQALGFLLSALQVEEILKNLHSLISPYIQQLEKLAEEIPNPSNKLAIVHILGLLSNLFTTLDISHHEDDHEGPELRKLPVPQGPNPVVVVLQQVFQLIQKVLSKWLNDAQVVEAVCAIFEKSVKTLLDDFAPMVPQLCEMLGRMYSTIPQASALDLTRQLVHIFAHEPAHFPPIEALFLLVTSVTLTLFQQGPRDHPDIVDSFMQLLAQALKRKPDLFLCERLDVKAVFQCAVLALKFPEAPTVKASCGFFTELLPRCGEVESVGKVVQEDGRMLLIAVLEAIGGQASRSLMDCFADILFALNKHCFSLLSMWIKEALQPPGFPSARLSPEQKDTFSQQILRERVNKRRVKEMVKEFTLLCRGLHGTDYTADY
Assay: co-IP; immunoprecipitation assay of SLX4 and IPO13 (Figure S7G); cells, bait and conditions not told in the main text

In the case of SLX4 (from UniProt Q8IY92 1-1834), the binding is reported as “no binding”.
